According to the M2OR odorant receptor database:
Where a chain is given by its changes, count along the chain named. This is one part of the list. The calls were merged from several studies; some rest on single wells.

Chains of the proteins cited; added tags and fusions are not shown. Chains listed by the source or under a name are the forms on record and can include a tag or linker.
O11H2, as listed by the source: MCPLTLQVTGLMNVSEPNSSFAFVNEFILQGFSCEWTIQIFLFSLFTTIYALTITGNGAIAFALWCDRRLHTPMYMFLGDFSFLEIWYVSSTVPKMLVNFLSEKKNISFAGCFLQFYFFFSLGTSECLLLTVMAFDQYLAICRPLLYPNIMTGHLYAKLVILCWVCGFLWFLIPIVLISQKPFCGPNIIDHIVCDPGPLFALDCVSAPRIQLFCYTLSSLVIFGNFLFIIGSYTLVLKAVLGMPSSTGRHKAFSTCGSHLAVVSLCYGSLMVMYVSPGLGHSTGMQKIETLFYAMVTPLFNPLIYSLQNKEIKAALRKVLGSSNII

Columns and labels:
Details in all cases: stereoisomer not certain
O10J3 = system: T1, O10J3
T1 sequence (whole entry): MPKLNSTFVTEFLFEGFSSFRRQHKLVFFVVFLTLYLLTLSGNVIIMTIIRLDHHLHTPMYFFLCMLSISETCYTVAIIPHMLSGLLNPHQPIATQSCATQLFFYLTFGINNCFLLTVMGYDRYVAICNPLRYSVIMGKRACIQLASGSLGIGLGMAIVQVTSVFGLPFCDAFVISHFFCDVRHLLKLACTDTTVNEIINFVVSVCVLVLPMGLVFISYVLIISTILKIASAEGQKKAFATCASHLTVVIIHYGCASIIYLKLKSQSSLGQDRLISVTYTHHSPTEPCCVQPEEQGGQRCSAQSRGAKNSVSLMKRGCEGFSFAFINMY
Procedure, shortened: (§1)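 Each entry records the cell line, G-protein, co-transfected protein and tags used. Methods varied with the source, often transient luciferase assays in mammalian cell lines. A receptor–molecule pair is called responsive (active) if the original authors judged its signal statistically different from baseline and non-responsive (inactive) otherwise.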

O10J5 = system: T2, O10J5
T2 sequence (whole entry): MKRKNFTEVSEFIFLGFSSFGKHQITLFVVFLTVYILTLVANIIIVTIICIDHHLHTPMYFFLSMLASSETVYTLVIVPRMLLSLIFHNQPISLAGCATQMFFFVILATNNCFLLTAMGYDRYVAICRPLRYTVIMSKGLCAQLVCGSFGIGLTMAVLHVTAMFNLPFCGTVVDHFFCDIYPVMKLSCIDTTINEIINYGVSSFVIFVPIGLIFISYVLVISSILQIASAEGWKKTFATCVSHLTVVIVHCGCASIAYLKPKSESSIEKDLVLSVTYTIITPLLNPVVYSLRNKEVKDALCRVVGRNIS
Procedure, shortened: as §1

O10P1 = system: T3, O10P1
T3 sequence (whole entry): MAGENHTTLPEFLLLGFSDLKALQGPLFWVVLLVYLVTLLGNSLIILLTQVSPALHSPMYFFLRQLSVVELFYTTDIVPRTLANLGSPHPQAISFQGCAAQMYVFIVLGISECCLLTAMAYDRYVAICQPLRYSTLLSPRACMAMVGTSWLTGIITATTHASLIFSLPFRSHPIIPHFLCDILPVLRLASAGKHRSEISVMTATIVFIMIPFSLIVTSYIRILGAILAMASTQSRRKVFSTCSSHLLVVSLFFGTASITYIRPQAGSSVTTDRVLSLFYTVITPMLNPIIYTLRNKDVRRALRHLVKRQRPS
Procedure, shortened: as §1

O10Q1 = system: T4, O10Q1
T4 sequence (whole entry): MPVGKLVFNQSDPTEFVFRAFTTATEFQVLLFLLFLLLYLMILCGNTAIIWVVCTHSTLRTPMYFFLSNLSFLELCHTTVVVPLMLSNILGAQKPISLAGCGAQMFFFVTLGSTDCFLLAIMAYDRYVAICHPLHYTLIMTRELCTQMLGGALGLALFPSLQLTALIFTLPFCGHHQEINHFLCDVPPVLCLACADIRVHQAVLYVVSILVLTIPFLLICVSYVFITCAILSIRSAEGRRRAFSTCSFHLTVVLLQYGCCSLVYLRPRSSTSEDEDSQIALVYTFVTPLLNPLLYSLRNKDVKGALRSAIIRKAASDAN
Procedure, shortened: as §1

O10R2 [1] = system: T5, O10R2
T5 sequence (whole entry): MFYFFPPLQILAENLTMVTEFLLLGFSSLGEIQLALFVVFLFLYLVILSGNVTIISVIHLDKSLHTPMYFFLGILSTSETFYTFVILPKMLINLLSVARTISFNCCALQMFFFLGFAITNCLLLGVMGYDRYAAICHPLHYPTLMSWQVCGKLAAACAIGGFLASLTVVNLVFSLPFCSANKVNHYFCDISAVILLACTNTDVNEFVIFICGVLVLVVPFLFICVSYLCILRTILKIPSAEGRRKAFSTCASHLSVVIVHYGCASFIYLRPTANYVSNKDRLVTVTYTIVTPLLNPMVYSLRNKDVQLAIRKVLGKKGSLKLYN
Procedure, shortened: as §1

O10R2 [2] = system: T6, O10R2; remark: listed apart in the source
T6 sequence (whole entry): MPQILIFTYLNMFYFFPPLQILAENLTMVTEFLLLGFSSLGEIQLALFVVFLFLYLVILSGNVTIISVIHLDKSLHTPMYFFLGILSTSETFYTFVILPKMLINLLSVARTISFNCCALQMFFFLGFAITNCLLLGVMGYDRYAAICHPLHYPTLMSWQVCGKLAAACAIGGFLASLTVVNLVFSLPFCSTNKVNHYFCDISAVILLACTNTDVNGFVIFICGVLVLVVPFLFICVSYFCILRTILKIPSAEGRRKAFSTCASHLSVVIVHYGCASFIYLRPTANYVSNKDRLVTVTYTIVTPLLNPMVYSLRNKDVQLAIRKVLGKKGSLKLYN
Procedure, shortened: as §1

O10V1 = system: T7, O10V1
T7 sequence (whole entry): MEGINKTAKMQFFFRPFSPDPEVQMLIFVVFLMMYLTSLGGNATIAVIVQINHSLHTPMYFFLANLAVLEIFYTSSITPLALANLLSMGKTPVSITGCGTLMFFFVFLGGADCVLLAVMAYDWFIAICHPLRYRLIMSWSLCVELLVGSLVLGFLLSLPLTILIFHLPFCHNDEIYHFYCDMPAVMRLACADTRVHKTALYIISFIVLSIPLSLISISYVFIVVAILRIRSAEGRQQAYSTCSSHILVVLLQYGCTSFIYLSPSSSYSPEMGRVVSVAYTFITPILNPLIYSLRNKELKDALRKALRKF
Procedure, shortened: as §1

O10W1 = system: T8, O10W1
T8 sequence (whole entry): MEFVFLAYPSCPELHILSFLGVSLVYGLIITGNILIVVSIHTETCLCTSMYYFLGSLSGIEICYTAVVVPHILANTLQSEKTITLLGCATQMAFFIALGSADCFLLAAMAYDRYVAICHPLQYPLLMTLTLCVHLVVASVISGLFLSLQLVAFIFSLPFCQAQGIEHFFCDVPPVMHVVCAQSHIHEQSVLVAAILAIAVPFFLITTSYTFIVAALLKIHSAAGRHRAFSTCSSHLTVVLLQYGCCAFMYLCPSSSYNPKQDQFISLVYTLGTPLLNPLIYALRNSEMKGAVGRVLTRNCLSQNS
Procedure, shortened: as §1

O10X1 = system: T9, O10X1
T9 sequence (whole entry): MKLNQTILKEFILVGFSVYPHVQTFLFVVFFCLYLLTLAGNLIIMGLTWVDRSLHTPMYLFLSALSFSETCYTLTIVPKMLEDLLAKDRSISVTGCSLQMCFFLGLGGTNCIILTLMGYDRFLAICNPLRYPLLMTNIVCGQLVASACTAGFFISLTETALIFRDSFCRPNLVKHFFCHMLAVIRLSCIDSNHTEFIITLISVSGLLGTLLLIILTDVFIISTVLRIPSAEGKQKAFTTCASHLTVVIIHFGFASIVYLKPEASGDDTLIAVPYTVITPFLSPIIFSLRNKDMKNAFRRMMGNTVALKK
Procedure, shortened: as §1

O11G2 = system: T10, O11G2
T10 sequence (whole entry): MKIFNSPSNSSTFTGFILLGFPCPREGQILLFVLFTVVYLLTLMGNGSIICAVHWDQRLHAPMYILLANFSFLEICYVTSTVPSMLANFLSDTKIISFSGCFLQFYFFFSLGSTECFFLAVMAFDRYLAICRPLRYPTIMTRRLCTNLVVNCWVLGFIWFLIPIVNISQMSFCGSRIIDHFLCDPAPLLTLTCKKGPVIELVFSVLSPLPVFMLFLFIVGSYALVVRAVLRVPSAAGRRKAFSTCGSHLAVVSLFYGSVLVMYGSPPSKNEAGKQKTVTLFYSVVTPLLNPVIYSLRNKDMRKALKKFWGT
Procedure, shortened: as §1

O11H1 [3] = system: T11, O11H1
T11 sequence (whole entry): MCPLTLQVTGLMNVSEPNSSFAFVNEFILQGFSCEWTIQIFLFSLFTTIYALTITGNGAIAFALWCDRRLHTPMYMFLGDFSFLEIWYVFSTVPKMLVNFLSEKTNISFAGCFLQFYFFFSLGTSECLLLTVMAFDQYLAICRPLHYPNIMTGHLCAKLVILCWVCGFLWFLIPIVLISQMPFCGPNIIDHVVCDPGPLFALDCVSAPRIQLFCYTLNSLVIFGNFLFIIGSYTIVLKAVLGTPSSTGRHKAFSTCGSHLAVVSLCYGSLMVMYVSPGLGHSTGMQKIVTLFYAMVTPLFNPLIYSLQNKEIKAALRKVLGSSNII
Procedure, shortened: as §1

O11H1 [4] = system: T12, O11H1; remark: listed apart in the source
T12 sequence (whole entry): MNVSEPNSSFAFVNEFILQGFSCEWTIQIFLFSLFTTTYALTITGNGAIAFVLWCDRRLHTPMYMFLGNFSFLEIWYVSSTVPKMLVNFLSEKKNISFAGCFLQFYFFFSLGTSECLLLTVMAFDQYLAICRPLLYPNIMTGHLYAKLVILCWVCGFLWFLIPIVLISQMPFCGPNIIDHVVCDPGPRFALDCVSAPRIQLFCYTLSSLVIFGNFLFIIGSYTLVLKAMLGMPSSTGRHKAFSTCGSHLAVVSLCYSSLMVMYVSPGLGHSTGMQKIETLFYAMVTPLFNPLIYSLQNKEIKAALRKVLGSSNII
Procedure, shortened: as §1

O11H2 = system: T13, O11H2
T13 sequence (whole entry): T11 sequence (whole entry) with F90S, T105K, H146L, C156Y, M181K, V192I, N218S, I235L, T243M, V289E
Procedure, shortened: as §1

O11H4 = system: T14, O11H4
T14 sequence (whole entry): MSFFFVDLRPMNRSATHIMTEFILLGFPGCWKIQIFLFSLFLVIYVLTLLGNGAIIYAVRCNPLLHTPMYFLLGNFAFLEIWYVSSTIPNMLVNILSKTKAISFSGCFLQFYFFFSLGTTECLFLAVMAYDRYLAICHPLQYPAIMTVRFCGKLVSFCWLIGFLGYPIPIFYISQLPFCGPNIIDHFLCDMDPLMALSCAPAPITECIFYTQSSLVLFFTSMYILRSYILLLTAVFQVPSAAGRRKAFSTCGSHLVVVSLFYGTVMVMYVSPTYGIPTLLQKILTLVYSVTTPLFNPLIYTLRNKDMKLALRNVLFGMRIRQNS
Procedure, shortened: as §1

O11L1 = system: T15, O11L1
T15 sequence (whole entry): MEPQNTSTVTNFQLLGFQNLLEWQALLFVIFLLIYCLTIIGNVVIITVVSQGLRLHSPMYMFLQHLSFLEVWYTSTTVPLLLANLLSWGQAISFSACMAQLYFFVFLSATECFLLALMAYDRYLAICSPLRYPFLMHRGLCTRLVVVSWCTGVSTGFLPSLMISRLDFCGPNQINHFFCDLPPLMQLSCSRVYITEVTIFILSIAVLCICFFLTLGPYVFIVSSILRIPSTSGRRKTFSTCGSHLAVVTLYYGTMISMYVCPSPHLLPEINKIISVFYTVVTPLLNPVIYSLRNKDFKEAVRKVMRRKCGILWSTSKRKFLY
Procedure, shortened: as §1

O12D2 = system: T16, O12D2
T16 sequence (whole entry): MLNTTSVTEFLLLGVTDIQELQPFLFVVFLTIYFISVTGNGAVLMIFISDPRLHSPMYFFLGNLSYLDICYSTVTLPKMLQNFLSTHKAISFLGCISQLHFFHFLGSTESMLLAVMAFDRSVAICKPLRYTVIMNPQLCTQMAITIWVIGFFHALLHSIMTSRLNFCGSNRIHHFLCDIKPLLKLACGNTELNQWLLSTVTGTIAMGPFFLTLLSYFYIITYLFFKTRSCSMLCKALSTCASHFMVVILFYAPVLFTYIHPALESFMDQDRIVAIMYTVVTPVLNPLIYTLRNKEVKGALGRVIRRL
Procedure, shortened: as §1

O13C3 = system: T17, O13C3
T17 sequence (whole entry): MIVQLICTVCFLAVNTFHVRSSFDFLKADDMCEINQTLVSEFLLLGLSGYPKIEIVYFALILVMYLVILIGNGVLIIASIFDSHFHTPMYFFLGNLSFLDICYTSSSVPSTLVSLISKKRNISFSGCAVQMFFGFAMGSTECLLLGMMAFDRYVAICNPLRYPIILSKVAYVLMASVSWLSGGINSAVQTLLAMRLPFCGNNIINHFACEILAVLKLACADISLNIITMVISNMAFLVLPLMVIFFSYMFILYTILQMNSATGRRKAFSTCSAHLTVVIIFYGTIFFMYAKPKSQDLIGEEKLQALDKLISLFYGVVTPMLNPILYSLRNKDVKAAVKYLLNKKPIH
Procedure, shortened: as §1

Measured: odorant receptor agonist call

CCCCO
inactive: all assays above

CC12CCC(C1)C(C)(C)C2=O (stereo unspecified)
inactive: all assays above

COc1ccccc1O
inactive: all assays above
